The target of assay [1] is T1, T-LAK-originated protein kinase (TOPK), endogenous in EC cells (human (endogenous in KYSE150 and KYSE30)) (UniProt Q96KB5).
T1 sequence: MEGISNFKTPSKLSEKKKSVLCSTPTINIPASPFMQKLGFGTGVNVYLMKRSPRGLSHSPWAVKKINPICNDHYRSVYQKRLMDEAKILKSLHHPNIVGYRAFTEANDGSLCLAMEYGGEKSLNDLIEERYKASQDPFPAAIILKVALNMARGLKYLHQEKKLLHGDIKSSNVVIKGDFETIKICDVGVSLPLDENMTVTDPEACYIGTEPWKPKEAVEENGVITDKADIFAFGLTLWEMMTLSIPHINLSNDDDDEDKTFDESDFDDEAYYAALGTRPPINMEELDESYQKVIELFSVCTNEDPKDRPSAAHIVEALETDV
As to the kind of experiment: co-IP; endogenous proteins in KYSE150 and KYSE30 lysates (50 mM Tris-HCl pH 7.4, 1 mM EDTA, 1% NP40, 150 mM NaCl); IP with anti-TOPK or anti-YB1 antibody (IgG as control) on protein A/G agarose at 4 °C overnight, Western blot; also done in sgTOPK (TOPK knockout) cells, where the level of YB1 bound with TOPK decreased.

Chains of the proteins cited; added tags and fusions are not shown.
UniProt P67809: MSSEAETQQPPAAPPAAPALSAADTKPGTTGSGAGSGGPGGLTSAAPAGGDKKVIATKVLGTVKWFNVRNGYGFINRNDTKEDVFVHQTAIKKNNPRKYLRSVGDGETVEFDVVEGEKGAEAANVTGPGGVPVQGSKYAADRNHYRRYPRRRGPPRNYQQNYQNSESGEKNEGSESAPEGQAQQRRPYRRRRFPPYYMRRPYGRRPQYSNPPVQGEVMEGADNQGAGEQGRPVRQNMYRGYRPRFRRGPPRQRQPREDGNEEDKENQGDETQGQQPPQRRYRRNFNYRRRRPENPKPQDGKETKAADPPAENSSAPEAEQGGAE

Assay [2] has as its target Y-box binding protein 1 (YB1), full length, in pBiFC-VN173 (UniProt P67809). As to the kind of experiment: split reporter; BiFC in HEK293T cells; TOPK in pBiFC-VC155 and YB1 in pBiFC-VN173 transfected, 48 h, fixed with 4% PFA, imaged by IN Cell Analyzer 6000.
Assay [3] has as its target Y-box binding protein 1 (YB1), endogenous in EC cells (human (endogenous in KYSE150 and KYSE30)) (UniProt P67809). Nature of the assay: co-IP; endogenous proteins in KYSE150 and KYSE30 lysates (50 mM Tris-HCl pH 7.4, 1 mM EDTA, 1% NP40, 150 mM NaCl); IP with anti-TOPK or anti-YB1 antibody (IgG as control) on protein A/G agarose at 4 °C overnight, Western blot; also done in sgTOPK (TOPK knockout) cells, where the level of YB1 bound with TOPK decreased. (A western blot detects proteins with antibodies after separation by electrophoresis.)

Drawing on publication PMC10276051, this text covers binding for three molecules.

These are yes or no findings as the source states them, for the method shown. In cells and extracts the contact can be indirect. Some binding calls cover weakened binding; strength is not graded here.

Regarding “Y-box binding protein 1 (YB1), endogenous in EC cells (from UniProt P67809 1-324)”, the binding entry in assay [1] is recorded as “binds”.

B1: T-LAK-originated protein kinase (TOPK), full length, in pBiFC-VC155 (enzyme, UniProt Q96KB5 1-322)
chain: T1 sequence
As for B1, in assay [2], the binding result is “binds”.

B2: T-LAK-originated protein kinase (TOPK), endogenous in EC cells (enzyme, UniProt Q96KB5 1-322)
chain: T1 sequence
For the molecule B2, the binding result in assay [3] is reported as “binds”.
